For two substances, binding results are on record in US20210228680A1.

Protein sequences, listed by entry. Tags and fused reporters are not part of them. Residues count along the entry.
UniProt P29351: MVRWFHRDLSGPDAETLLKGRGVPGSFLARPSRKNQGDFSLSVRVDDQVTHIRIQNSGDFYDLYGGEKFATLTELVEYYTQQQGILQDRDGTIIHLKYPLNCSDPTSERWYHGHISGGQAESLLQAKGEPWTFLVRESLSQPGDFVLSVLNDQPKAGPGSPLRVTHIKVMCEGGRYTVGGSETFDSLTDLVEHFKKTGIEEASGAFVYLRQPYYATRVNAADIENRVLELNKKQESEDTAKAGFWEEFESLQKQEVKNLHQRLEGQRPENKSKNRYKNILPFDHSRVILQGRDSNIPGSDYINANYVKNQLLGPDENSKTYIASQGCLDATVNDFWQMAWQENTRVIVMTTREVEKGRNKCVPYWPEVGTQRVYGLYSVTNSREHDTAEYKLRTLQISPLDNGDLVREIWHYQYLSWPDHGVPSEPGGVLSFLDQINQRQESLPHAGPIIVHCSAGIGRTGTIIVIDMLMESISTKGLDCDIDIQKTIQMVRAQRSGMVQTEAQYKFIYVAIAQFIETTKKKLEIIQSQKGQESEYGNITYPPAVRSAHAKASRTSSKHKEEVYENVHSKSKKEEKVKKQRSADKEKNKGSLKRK
UniProt Q96LC7, residues 17-546: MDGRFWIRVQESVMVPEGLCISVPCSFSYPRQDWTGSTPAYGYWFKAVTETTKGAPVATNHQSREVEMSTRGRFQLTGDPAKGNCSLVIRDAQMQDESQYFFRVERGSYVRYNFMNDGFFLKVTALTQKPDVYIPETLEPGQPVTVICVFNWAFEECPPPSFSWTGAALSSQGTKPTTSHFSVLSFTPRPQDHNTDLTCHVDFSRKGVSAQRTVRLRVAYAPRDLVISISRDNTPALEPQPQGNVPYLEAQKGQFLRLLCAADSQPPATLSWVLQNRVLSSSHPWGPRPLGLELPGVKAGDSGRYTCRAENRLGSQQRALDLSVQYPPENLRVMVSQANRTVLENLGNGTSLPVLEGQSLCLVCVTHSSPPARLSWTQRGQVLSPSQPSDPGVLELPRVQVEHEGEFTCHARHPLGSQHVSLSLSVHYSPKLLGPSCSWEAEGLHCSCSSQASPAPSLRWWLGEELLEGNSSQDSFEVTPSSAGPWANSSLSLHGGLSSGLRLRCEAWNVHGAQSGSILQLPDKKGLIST

No constants are given. Whether binding was seen depends on the method and setting. For some assays here: In cells and extracts the contact can be indirect. Some results given as binding are weak or reduced against the parent protein; the word gives no strength.

For test [1], the target named is T1, Siglec G (mouse homologue of human Siglec 10) (mouse) (UniProt Q80ZE3).
T1 sequence (looked up): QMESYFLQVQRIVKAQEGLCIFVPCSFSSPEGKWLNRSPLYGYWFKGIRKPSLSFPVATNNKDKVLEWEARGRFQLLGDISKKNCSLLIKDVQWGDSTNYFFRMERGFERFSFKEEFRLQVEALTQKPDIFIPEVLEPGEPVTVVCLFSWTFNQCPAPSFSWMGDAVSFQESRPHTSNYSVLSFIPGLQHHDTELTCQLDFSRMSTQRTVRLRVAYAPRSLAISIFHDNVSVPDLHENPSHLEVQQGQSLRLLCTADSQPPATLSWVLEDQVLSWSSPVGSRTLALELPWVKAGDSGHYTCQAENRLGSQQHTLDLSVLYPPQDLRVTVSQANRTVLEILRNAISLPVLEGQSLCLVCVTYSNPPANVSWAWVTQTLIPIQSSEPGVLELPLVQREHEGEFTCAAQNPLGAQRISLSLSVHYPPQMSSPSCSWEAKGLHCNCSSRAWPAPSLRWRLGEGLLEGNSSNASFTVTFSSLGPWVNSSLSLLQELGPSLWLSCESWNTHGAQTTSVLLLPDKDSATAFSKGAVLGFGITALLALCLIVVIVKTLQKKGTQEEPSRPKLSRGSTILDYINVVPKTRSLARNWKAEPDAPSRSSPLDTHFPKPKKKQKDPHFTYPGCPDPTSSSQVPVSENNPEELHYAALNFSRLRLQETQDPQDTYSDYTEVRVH
Description: Co-immunoprecipitation: CD24-/- spleen cells stimulated 30 minutes with 1 µg/ml CD24Fc, control Fc or PBS; Siglec G immunoprecipitated, Western blot with anti-SHP-1.

The target in test [2] is CD24Fc fusion protein (processed, secreted form) (human). The test can be described thus: Biacore (SPR): CD24Fc immobilised on the chip, Siglec-10Fc injected at different concentrations.

In the case of “SHP-1 (from UniProt P29351 1-595) (enzyme)”, in test [1], the binding entry was “binds”. On to “Siglec-10Fc (from UniProt Q96LC7 17-546) (Fc fusion)”, for which, in test [2], the binding entry is on record as “binds”.
